In PMC9278858:

T1: TAP-Sen1ΔNTD (Sen1 lacking the N-terminal domain, TAP-tagged, expressed from pGAL1) (S. cerevisiae) (UniProt Q00416)
T1 sequence: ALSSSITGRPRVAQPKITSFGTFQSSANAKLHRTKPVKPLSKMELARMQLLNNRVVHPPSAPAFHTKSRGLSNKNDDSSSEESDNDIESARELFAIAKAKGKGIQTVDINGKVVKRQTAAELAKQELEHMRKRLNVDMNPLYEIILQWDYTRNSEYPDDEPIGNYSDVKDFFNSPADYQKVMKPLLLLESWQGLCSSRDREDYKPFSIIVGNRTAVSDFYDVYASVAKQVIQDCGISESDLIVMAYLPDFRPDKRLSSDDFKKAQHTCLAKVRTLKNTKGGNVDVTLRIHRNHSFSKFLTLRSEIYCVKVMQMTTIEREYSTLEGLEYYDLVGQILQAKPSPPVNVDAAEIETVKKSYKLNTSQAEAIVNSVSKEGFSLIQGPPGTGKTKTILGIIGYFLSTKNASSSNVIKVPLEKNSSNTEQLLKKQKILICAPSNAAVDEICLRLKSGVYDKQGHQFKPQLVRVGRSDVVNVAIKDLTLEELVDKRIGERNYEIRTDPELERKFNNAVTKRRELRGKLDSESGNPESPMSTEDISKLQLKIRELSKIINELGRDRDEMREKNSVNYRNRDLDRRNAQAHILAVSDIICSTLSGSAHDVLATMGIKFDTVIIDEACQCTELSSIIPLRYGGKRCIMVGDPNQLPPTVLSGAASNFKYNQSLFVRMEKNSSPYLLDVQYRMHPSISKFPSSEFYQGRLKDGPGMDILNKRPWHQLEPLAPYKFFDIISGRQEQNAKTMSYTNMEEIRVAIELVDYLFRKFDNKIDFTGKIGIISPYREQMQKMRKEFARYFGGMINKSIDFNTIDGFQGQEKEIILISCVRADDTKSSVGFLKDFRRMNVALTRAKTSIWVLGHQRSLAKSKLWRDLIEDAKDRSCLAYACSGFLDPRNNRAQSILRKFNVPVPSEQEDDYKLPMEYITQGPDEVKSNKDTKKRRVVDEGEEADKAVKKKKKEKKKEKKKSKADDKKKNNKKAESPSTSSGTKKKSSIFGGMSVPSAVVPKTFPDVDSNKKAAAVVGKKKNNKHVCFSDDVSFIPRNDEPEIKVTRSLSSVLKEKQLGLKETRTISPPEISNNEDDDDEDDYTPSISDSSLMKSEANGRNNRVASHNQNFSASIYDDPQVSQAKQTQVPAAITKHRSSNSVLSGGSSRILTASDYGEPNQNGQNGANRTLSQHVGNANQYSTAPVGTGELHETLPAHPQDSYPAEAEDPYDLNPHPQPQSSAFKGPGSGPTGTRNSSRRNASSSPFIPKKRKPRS

T2: TAP-NTD (isolated N-terminal domain of Sen1, TAP-tagged, expressed from pGAL1) (S. cerevisiae) (UniProt Q00416)
T2 sequence: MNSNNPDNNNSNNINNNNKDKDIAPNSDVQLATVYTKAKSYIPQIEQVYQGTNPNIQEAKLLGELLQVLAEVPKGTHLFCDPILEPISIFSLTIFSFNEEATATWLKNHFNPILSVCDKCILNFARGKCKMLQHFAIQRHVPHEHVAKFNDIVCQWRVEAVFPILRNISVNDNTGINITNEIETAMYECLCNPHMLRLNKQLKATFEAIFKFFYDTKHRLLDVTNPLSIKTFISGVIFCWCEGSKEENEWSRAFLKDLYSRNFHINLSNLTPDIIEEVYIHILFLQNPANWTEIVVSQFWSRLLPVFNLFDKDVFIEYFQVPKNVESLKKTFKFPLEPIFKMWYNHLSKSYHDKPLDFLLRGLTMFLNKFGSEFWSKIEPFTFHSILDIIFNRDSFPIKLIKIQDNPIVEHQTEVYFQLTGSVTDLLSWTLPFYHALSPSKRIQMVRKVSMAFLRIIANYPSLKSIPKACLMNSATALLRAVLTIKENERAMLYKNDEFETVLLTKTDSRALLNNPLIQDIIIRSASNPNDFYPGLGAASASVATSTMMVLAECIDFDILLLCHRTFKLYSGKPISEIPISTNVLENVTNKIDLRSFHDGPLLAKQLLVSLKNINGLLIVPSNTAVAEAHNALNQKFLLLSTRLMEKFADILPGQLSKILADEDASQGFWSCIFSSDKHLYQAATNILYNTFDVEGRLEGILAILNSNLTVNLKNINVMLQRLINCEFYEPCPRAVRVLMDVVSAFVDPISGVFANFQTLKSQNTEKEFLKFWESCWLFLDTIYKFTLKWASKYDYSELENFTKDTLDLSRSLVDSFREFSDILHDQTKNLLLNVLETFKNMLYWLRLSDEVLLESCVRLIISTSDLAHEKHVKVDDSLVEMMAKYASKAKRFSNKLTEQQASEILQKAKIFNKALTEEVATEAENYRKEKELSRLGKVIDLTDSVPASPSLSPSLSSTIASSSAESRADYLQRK


What was measured:
[1] = biological target: T1, TAP-Sen1ΔNTD (Sen1 lacking the N-terminal domain, TAP-tagged, expressed from pGAL1) (S. cerevisiae); experiment: affinity purification with mass spectrometry; TAP-tagged Sen1 versions (full length, ΔNTD, NTD) overexpressed from pGAL1 as baits; yeast lysates in 10 mM sodium phosphate pH 7.5, 200 mM sodium acetate, 0.25% NP-40, treated with RNase A; IgG Sepharose; elution by TEV cleavage; untagged control
[2] = biological target: T2, TAP-NTD (isolated N-terminal domain of Sen1, TAP-tagged, expressed from pGAL1) (S. cerevisiae); experiment: as above
[3] = biological target: Sen1-3–TAP (Sen1 W773A E774A W777A fused to a TAP tag) (S. cerevisiae) (UniProt Q00416); experiment: affinity purification with mass spectrometry; Sen1-TAP or Sen1-3–TAP as bait; yeast lysates; untagged control

| binding [1] | binding [2] | binding [3] | Binder |
| --- | --- | --- | --- |
| no binding | no binding |  | Mrc1 (protein, UniProt P25588 1-1096) MDDALHALSSLTAKKRTTTYKKVAVPILDENDNTNGNGPNDIDNPPELTGNGFLFANATLNRVKNRLEGKKAPEQNHNNGKDRSENSLPTQLISNLYDGGEELEKSEVKDNSYSEKNVSSSFTQTQRIPVSIQQDKVFNVPIHSVNDGKPTQLIKEDGLVNETSQALKTPLTTGRPGATQRIDSSGATSQTQPIKSIEPQSQIITTSSNHSNALSPKIPIIPTELIGTSPLFQSIQNRGPDTQMDVPPQTAHDEDKTQAIGIPQATHQEQKTQIDTVAQTLQDEVPHTLKIREIQSELASEDSKREKARNVEYKKPQKPIPTKKFFSKESFLADFDDSSSNEDDDIKLENAHPKPVQNDDELHENKSVELNLTDETRINEKRVPLLSSYANNLKREIDSSKCITLDLDSDSDEYGDDDMDSIKLSKDESVLPISQLSKATILNLKARLSKQNQKLSQRPNKSKDPKVDHNVLLNTLRKASRKQILDHQKEVIETKGLKLEDMAKEKEIVENLLEQEILRNKRIRQKEKRREKLEENDFQLNAHDSGSDSGSESSGFALSGNEIADYESSGSENDNRRESDSEKEDDEIILKQKKSHHVKHIINESDSDTEVEAKPKEKADESLPKRIAINLGHYGDNIGEDTDKFQETNVLDTQNIEEVMAERNTIENEVKDDVYVNEEADEAIRRQLIDKEKLQLKQKEKEHEAKIKELKKRGVTNFFEMEAEESEDEWHGIGGADGEGSDDYDSDLEKMIDDYSKNNFNPHEIREMLAAENKEMDIKMINKILYDIKNGGFRNKRAKNSLELELSDDDEDDVLQQYRLKRRELMRKRRLEIGDDAKLVKNPKSSAFFESMVEDIIEYKNPFGAEEEYNLDITSTATDLDTQDNSINVGDNTGNNEQKPVDQKNKKVIISEDFVQKSLSFLKSNNYEDFETDKELSRIQHGNDEAIEDLYTLKQNSSIKSFTNSQTDSTTSKTVNTIIDLEKRPEDEDEVENGDTSLVGVFKHPSIIKSFASRTDINDKFKEGNKTVKILKSYKTVGSSKASITYMGKTRKLIAPKRKTEGSHRYHHDHHNKKMKMKTKTKSNKLFESGQDSFDN |
| no binding | binds | no binding | Ctf4 (protein, UniProt Q01454 1-927) MVSVIDKLVFDFGGKTLVSLAPDNNTLCVANKNGLTKILKTNNPEEEPETLDSSKLVSSIKCYSNSHFLMTTMQGDALRYNIDSSQEELLARFALPLRDCCVIHSGKMAVFGGDDLELILLELDDETHKKHAIKIDEQVSQISYNSQMNILAVSMINGKVQIFSLTSTIPNKVHELNDYIVANSYDDTHRDKILSNMMDDIDKDNDNDLSETADPDENNVADPEFCAANRICTRVAWHPKGLHFALPCADDTVKIFSIKGYSLQKTLSTNLSSTKAHFIDLQFDPLRGTYIAAVDLNNKLTVWNWETSEIHYTREFKRKITNIAWKIQADSKTLDLVLGTWSGSIAIVQNLAESVVSNIPDQSVAESSTKHGLFVDSESDLENLEGNDDINKSDKLFSDITQEANAEDVFTQTHDGPSGLSEKRKYNFEDEEDFIDDDDGAGYISGKKPHNEHSYSRVHKTHSFPISLANTGKFRYMPFSPAGTPFGFTDRRYLTMNEVGYVSTVKNSEQYSITVSFFDVGRFREYHFEDLFGYDLCFLNEKGTLFGQSKTGQIQYRPHDSIHSNWTKIIPLQAGERITSVAATPVRVIVGTSLGYFRSFNQFGVPFAVEKTSPIVALTAQNYRVFSVHYSQFHGLSYSLSELGTSSKRYYKRECPLPMSLPNINSDMKKDANLDYYNFNPMGIKSLFFSSYGDPCIFGSDNTLLLLSKWRSPEESKWLPILDSNMEIWKMSGGKETTDIHVWPLALAYDTLNCILVKGKHIWPEFPLPLPSEMEIRMPVFVKSKLLEENKAILNKKNEIGADTEAEEGEEDKEIQIPVSMAAEEEYLRSKVLSELLTDTLENDGEMYGNENEVLAALNGAYDKALLRLFASACSDQNVEKALSLAHELKQDRALTAAVKISERAELPSLVKKINNIREARYEQQLK |

Results are given in words; binding and its absence hold for the method and conditions named. In cells and extracts the contact can be indirect. These calls come from enrichment with a bait or labelling near it, and not all partners need be listed. No binding means not detected with the bait. For some assays here: Sequences can lack the tags named with a protein.
